Test results as given in PubChem BioAssay AID1347426 (Functional Genomics Laboratory (NCATS/FGL), 2020).
The campaign covered roughly 31,000 sequences. About 1,400 (4.5%) were called active.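 The calls were made as follows: active = median seed-adjusted z-score above 1 or below -1; inactive = the rest.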 The list shows a part of the results.

Experiment: Novel Modifiers of Survival Motor Neuron (SMN) Protein: Gene Identification via Genome-wide siRNA Screen;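 also: luminescence tracks full-length SMN protein made from the SMN2 reporter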
Settings: HEK293T SMN2-luciferase reporter, siRNA knockdown, 72 h; actives lie on both sides
Procedure, shortened: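 Each of three siRNAs per gene is reverse-transfected (1 pmol) into reporter HEK293T cells whose luciferase output tracks SMN protein level. After 72 h culture, ONE-Glo luminescence is control-normalized, log10-transformed and MAD-standardized; Common Seed Analysis deprioritizes seed-driven hits.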
With GAAAUACAGCUUAUGCAUATT against PTH the median seed-adjusted z-score was inactive: 0.
With CCACUUACCUGCCCAUAUATT against SEC63 the median seed-adjusted z-score was inactive: -0.159.
With GGAAGGAUGUGAUCCAGUATT against PREP the median seed-adjusted z-score was inactive: 0.0883.
In the case of GGAUAAGCAUGGGACAAGATT against OTC, the median seed-adjusted z-score is reported as inactive: 0.496.
For CAGUGUAUCUGAACCUAUUTT against EFTUD1, the median seed-adjusted z-score was active: -1.39.
For GUUUGACACUGGACUCUCATT against CRYAB, the median seed-adjusted z-score was inactive: 0.354.
With GUCCAUUGGUGUGAGUGCATT against HYAL3 the median seed-adjusted z-score was inactive: 0.
In the case of GGAGAAUUGACUACGCUUATT against KTN1, the median seed-adjusted z-score is reported as inactive: -0.233.
For GGGCUGGAAUUUUAAGCAATT against ALDH1L2, the median seed-adjusted z-score was inactive: 0.
For CAGUGACCUGCUUCCCUCATT against PROP1, the median seed-adjusted z-score was inactive: 0.303.
With ACAUCAUGUUGGACUGUGATT against B4GALT7 the median seed-adjusted z-score was inactive: -0.00294.
In the case of CCAAUACAGUGGACAGUUATT against EMR1, the median seed-adjusted z-score is reported as inactive: 0.255.
With GCAUUACAGUACUUACGUATT against BTAF1 the median seed-adjusted z-score was active: -1.19.
With GGAGCUUCAACUACAUUGATT against FAM12B the median seed-adjusted z-score was inactive: 0.312.
In the case of GCAAUGUAUAUGUUCAGUATT against ZRSR2, the median seed-adjusted z-score is reported as inactive: 0.0222.
With UGGUUGGUUUUAUACUAUATT against MYF6 the median seed-adjusted z-score was inactive: -0.0315.
For GAUUUGCAUUGCAAUACAATT against MAL2, the median seed-adjusted z-score was inactive: -0.604.
For GGCUGAUUUAUCUUCGAUATT against SLC7A11, the median seed-adjusted z-score was inactive: -0.182.
In the case of CGCAACGAGUUACAGAGGATT against GRINL1A, the median seed-adjusted z-score is reported as inactive: 0.
In the case of CCAAUGCUAAUCUAUCUAATT against MYH8, the median seed-adjusted z-score is reported as inactive: 0.0648.
With GUUUCUCAGUACUUCCAGATT against APOA2 the median seed-adjusted z-score was inactive: -0.297.
In the case of AGCUCUAUGUUUUCGUUAATT against DUSP22, the median seed-adjusted z-score is reported as inactive: 0.
For GCUCCGCAAGUGUAGAUGATT against ZNF431, the median seed-adjusted z-score was inactive: 0.00537.
In the case of GGCACGAAGACAUCGAUAATT against GCK, the median seed-adjusted z-score is reported as inactive: -0.286.
In the case of GGUACGAGCGAAACAUUGATT against F2, the median seed-adjusted z-score is reported as inactive: 0.286.
For CGAGCACACUAGUGAGUUUTT against MYBL1, the median seed-adjusted z-score was inactive: 0.344.
For GGAAUAUCACAAUACACUGTT against FCGR1B, the median seed-adjusted z-score was inactive: 0.2.
With CCAUGAACAAGUUACGGCATT against NUMBL the median seed-adjusted z-score was inactive: -0.139.
With GAGGAUCCAUGAUACAUGUTT against RHAG the median seed-adjusted z-score was inactive: -0.212.
In the case of GAAUCUGGAUAGUAUGCUUTT against BMPR1A, the median seed-adjusted z-score is reported as inactive: 0.797.
For CCACUAAGAUGUACAUGAATT against DHX37, the median seed-adjusted z-score was inactive: -0.126.
For CUAUGCGUUUGAAACCAAATT against GRK1, the median seed-adjusted z-score was inactive: 0.0807.
In the case of GGAACUCGUGCAUCUCCAATT against CD93, the median seed-adjusted z-score is reported as inactive: -0.0879.
In the case of AGAUCCACCUCUCAACGCATT against CADM3, the median seed-adjusted z-score is reported as inactive: 0.
In the case of GCGUGUAUCUGGUACGUCATT against KCNH8, the median seed-adjusted z-score is reported as inactive: 0.
With GGAGGACAAUCAGCAAGGATT against SPOCK2 the median seed-adjusted z-score was inactive: 0.967.
For GGUUCGGUCUGAAAGGUGUTT against TIMP2, the median seed-adjusted z-score was inactive: 0.0444.
For GCAGAAUACAUUCACGCUATT against CD22, the median seed-adjusted z-score was inactive: -0.448.
For AGUACAUCGCGGAUCUGUATT against RCN3, the median seed-adjusted z-score was active: -2.44.
In the case of AGUUCGACCCUGACCUGGATT against TH, the median seed-adjusted z-score is reported as inactive: -0.878.
For GCUGAAGUCCUGAAGGUCATT against PPP1R1B, the median seed-adjusted z-score was inactive: -0.354.
For CGUCUAAGCUGAGGAAACATT against ZNF584, the median seed-adjusted z-score was inactive: 0.172.
With GACCAAAAGUGGAACUCCATT against PTPN23 the median seed-adjusted z-score was inactive: -0.0473.
With GUAUCUACUUGAUUAACCATT against SLC22A15 the median seed-adjusted z-score was inactive: -0.137.
In the case of CCACGAAACGUGAAGUUCATT against CDH5, the median seed-adjusted z-score is reported as inactive: -0.557.
With GCACGCACAUGUCAUUGAATT against ZDHHC1 the median seed-adjusted z-score was inactive: 0.
For GUAGAACUCUCGUAUGCUATT against HNRNPU, the median seed-adjusted z-score was inactive: 0.431.
In the case of GCAUGCCUGAACUACAUAATT against RASSF1, the median seed-adjusted z-score is reported as inactive: -0.719.
With GGAUACAAUUAUAGCUACATT against FCN2 the median seed-adjusted z-score was inactive: 0.281.
With GGGAGAUCCUUCGUCAAAATT against TRPV5 the median seed-adjusted z-score was inactive: 0.0879.
In the case of CCACGGUGCUUGUAUAACUTT against LNX1, the median seed-adjusted z-score is reported as inactive: -0.463.
For CAGUGAUCUUGGGACAUGATT against RCADH5, the median seed-adjusted z-score was inactive: -0.158.
In the case of CACUUAGUAAUGACAAUUATT against SLC17A6, the median seed-adjusted z-score is reported as inactive: 0.339.
For AGGCCGUUCUGUGCGAGAATT against DHDH, the median seed-adjusted z-score was inactive: 0.522.
In the case of CGGUGAAGCCCAAUGCAAATT against LGALS3, the median seed-adjusted z-score is reported as inactive: 0.14.
With CGGUCAUCAUUGUGGGUAATT against OSGIN1 the median seed-adjusted z-score was inactive: -0.131.
With GAACCAUCUCAAUACUAUUTT against DACH2 the median seed-adjusted z-score was inactive: -0.00102.
In the case of CAUCAGCACUAGCACCUCATT against ZNF213, the median seed-adjusted z-score is reported as active: 1.37.
With GCAUAUUCAGACACUUAUUTT against GCA the median seed-adjusted z-score was inactive: -0.162.
With GCUACACUCAACUACCUGATT against ADCY5 the median seed-adjusted z-score was inactive: -0.123.
With GGAAUGUCACGGCUAAUCATT against PITPNM3 the median seed-adjusted z-score was inactive: -0.0378.
For GGUGCGGCCCUAUUACUUUTT against RPUSD2, the median seed-adjusted z-score was inactive: -0.215.
With CCACUUGUCUCCUAACAAATT against KCNB1 the median seed-adjusted z-score was inactive: 0.0206.
For CCGCAAAUUUUAACCUUGUTT against IL1R2, the median seed-adjusted z-score was inactive: 0.429.
With GCAUCUUGGAUGUCCUACATT against DOCK3 the median seed-adjusted z-score was inactive: 0.51.
In the case of GGACACUAUAAGAAAGGAATT against FNTA, the median seed-adjusted z-score is reported as active: 1.04.
With GGAGGAUUUUGACCGACUUTT against RHOV the median seed-adjusted z-score was inactive: -0.326.
With AGAGGAAGCAUGAAAUGGATT against SIGLEC8 the median seed-adjusted z-score was inactive: 0.0069.
In the case of GAAGGUUAUGUUAACAGUATT against NAT11, the median seed-adjusted z-score is reported as inactive: 0.37.
For GGAGGAGAUAGGCACUGAATT against TIGD3, the median seed-adjusted z-score was inactive: 0.486.
With GCCUUAUCAGGACCUCUGATT against RAB43 the median seed-adjusted z-score was inactive: -0.0845.
For AGUUGUACCUGAUGAGGUATT against FLAD1, the median seed-adjusted z-score was inactive: 0.367.
For UCCUAACCUCAGAAACUGATT against CAPS, the median seed-adjusted z-score was active: -1.25.
With CCACUGCACCGACAUAAAATT against HABP2 the median seed-adjusted z-score was inactive: -0.141.
In the case of CAGCCCGUUUUGAAGGGUATT against CRIP3, the median seed-adjusted z-score is reported as active: 1.7.
For CACAUACCUUCGGCCCAGATT against CEBPE, the median seed-adjusted z-score was inactive: -0.259.
In the case of GCUACUUCUCCUGCACUUUTT against KRT81, the median seed-adjusted z-score is reported as inactive: -0.0955.
For CAAUUAGAUGAGAUGAAUUTT against SULT1E1, the median seed-adjusted z-score was inactive: 0.509.
In the case of CAGGGUCUAUGGUACCGUUTT against UBE3C, the median seed-adjusted z-score is reported as inactive: 0.0341.
For CAGUGCACAGUGAAACCAATT against ADAM11, the median seed-adjusted z-score was inactive: 0.102.
In the case of GACUCAUACGAGCGCAUUATT against SEMA4F, the median seed-adjusted z-score is reported as inactive: 0.139.
With CGUACUCAUUUGCAAGAUATT against ALKBH8 the median seed-adjusted z-score was inactive: -0.487.
In the case of AGAAAGCAAUUGGAUCACATT against NOX1, the median seed-adjusted z-score is reported as inactive: -0.221.
For CGAAAGAGGCAAAUAUGAATT against CBX3, the median seed-adjusted z-score was inactive: -0.893.
With GGAAGGACGACAACACUGATT against GPA33 the median seed-adjusted z-score was inactive: 0.138.
In the case of GGUUUUUAAUCGCAAAGCATT against ZNF525, the median seed-adjusted z-score is reported as inactive: 0.134.
With CCUCAAUACACGAUAAGAATT against GZF1 the median seed-adjusted z-score was inactive: 0.286.
In the case of GAAUGCAGGGAGAAACUUATT against TRIM64, the median seed-adjusted z-score is reported as inactive: -0.024.
For AUACAGUUGUUGGAAAAGATT against IDS, the median seed-adjusted z-score was inactive: -0.074.
For CGUUUAAAGAAAAUCGAAATT against TXNDC10, the median seed-adjusted z-score was inactive: -0.0542.
For GCCUGUUGGUUCUCACGCUTT against PCDHA9, the median seed-adjusted z-score was inactive: -0.295.
With CACUAGGAAUCACACCGUUTT against TINAG the median seed-adjusted z-score was inactive: 0.374.
For GACCUCUCCUUACUUAUUATT against DNAJC4, the median seed-adjusted z-score was inactive: 0.566.
In the case of GCAAAACCGGAAGACCUUATT against VAPB, the median seed-adjusted z-score is reported as inactive: 0.254.
In the case of GCACUUACAGCAUCCAUGUTT against SEZ6L2, the median seed-adjusted z-score is reported as inactive: -0.331.
In the case of GAUACAACCUGAAGGAUGATT against PPP2R2C, the median seed-adjusted z-score is reported as inactive: -0.87.
With GGAUUGUUGGAUAACCCUATT against SPTLC1 the median seed-adjusted z-score was inactive: 0.0941.
With GGAUUGGAAGUGCCGACUATT against TRIM67 the median seed-adjusted z-score was inactive: -0.431.
For CAGUUGUCCUUGUGGAUAATT against TTF1, the median seed-adjusted z-score was active: 1.76.
With GUUCCUGAAGGAUCCCUAUTT against DGAT1 the median seed-adjusted z-score was inactive: 0.148.
In the case of AAGCUGUAAUUAGCAAUGATT against NRL, the median seed-adjusted z-score is reported as inactive: -0.352.
For GCAUGCUUCUACGAUAUAATT against AIFM1, the median seed-adjusted z-score was inactive: 0.0499.
In the case of CGUUCGGUCUGACGCAGUATT against LRP5, the median seed-adjusted z-score is reported as active: -1.
For GAGUGAAGUAUAAUCCAUATT against TPH1, the median seed-adjusted z-score was inactive: -0.055.
For GAAUGGUGUUUUACUCUAUTT against ZFYVE26, the median seed-adjusted z-score was inactive: 0.0495.
For CAAUUUUUCCCUGAAUAGATT against KLRC4, the median seed-adjusted z-score was inactive: -0.218.
With GUCCUGUCUUGAUUAAAUUTT against CHST7 the median seed-adjusted z-score was inactive: 0.
With GGACCACACUGGGACUUAUTT against SEL1L2 the median seed-adjusted z-score was inactive: -0.342.
